For this assay, the target named is BAG3 protein (human (endogenous in A375)) (UniProt O95817). The assay is described as follows: co-IP; A375 cell extracts immunoprecipitated at 4°C overnight with anti-BAG3 mAb AC-2 coupled to Dynabeads; Western blot with anti-BAG3 polyclonal, anti-BRAF, anti-HSC70 and anti-GAPDH antibodies; mouse IgGs as negative control. For orientation: A western blot detects proteins with antibodies after separation by electrophoresis.

Amino acid sequences for entries named in this document (tags omitted). A change or cut given only in a name is not applied to a line headed by its entry.
UniProt O95817: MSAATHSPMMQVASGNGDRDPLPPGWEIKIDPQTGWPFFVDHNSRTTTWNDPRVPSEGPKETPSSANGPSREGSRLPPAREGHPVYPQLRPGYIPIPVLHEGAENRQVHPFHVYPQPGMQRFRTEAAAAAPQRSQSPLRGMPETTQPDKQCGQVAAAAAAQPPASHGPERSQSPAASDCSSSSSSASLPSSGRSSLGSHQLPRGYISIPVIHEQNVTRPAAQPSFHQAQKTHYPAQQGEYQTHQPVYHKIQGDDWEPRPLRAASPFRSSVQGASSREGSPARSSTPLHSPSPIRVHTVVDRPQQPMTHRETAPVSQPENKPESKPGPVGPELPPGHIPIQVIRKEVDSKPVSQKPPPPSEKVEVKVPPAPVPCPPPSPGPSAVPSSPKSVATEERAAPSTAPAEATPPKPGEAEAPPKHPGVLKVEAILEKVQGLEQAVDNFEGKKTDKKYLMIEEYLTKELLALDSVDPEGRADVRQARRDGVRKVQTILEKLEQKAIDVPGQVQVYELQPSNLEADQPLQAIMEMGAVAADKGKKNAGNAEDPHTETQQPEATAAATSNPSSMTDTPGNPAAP
UniProt P15056: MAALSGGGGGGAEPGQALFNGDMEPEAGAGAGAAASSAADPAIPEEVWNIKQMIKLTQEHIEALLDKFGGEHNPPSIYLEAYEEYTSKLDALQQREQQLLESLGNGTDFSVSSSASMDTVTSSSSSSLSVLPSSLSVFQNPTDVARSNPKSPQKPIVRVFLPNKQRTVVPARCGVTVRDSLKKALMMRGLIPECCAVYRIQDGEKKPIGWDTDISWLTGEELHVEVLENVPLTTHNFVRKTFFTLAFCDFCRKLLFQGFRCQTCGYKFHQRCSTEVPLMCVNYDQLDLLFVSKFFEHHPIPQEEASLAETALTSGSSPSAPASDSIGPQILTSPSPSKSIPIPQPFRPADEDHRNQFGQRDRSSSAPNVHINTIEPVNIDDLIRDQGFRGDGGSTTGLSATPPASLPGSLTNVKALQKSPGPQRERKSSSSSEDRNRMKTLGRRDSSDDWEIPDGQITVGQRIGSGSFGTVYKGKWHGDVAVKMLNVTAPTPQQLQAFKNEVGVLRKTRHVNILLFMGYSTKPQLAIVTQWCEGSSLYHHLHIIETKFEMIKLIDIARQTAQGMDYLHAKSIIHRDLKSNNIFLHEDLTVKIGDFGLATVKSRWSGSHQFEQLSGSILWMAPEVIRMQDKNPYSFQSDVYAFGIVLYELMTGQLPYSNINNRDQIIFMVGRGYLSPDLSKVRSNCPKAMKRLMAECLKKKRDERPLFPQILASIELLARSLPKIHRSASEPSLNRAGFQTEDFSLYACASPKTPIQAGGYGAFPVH

Results are given in words; binding and its absence hold for the method and conditions named. In cells and extracts the contact can be indirect. Some results given as binding are weak or reduced against the parent protein; the word gives no strength.

In the case of BRAFV600E (from UniProt P15056 1-766), the binding result is on record as “binds”.
